Measurements: paper PMC6359284, “Identification, Characterization, and Optimization of Integrin αvβ6-Targeting Peptides from a One-Bead One-Compound (OBOC) Library: Towards the Development of Positron Emission Tomography (PET) Imaging Agents” (Molecules, 2019)
Results are given in words; binding and its absence hold for the method and conditions named. Some results given as binding are weak or reduced against the parent protein; the word gives no strength.

Protein sequences, listed by entry. Tags and fused reporters are not part of them. Lines headed by an entry give the natural chain unless they say otherwise; changes in a name come on top.
UniProt P06756: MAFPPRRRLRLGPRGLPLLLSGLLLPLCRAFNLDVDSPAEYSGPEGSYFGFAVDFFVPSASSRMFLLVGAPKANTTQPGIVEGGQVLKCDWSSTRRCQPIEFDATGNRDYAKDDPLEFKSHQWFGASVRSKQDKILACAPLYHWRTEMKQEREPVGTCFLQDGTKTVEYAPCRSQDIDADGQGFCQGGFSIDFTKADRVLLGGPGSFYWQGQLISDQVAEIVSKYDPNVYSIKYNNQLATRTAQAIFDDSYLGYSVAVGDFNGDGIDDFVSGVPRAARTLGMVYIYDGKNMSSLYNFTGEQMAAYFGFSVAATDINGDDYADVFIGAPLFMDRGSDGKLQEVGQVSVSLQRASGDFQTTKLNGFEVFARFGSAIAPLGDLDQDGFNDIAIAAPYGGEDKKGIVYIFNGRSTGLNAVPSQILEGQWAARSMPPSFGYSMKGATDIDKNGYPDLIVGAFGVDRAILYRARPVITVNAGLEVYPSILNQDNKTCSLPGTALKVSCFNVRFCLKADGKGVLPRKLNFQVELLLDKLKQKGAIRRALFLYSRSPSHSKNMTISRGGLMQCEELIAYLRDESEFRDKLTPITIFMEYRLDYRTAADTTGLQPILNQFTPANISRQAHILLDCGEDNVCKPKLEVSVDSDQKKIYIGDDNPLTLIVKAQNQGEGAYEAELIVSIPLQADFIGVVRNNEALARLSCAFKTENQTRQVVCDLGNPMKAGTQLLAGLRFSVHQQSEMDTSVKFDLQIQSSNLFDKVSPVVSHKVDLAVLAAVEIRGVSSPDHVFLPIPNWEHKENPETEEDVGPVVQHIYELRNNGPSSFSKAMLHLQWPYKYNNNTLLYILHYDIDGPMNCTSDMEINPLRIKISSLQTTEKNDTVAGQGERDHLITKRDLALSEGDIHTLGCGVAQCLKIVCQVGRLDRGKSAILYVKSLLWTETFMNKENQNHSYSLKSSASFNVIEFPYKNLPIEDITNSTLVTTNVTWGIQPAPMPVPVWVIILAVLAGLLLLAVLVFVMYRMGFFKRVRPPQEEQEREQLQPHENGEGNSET

Biological target: integrin αvβ6 on DX3puroβ6 cells (UniProt P06756)
Assay: on-bead cell binding assay; only the binder purified

Binder	binding
RGDLMKLAK [peptide 2, …(FB)]	binds
RGDLADLRK [peptide 3, …(FB)]	binds
RGDLRELAK [peptide 5, …(FB)]	binds
